# Measurements from the supplement of paper PMC12819154, “High-throughput peptide-centric local stability assay extends protein–ligand identification to membrane proteins, tissues and bacteria” (Nature Structural & Molecular Biology, 2025).
# By UniProt entry, the sequences of proteins in these tests, tags left out. Where a name states a change or a piece, a line headed by the entry shows the natural chain unless it says otherwise.
# UniProt Q07076: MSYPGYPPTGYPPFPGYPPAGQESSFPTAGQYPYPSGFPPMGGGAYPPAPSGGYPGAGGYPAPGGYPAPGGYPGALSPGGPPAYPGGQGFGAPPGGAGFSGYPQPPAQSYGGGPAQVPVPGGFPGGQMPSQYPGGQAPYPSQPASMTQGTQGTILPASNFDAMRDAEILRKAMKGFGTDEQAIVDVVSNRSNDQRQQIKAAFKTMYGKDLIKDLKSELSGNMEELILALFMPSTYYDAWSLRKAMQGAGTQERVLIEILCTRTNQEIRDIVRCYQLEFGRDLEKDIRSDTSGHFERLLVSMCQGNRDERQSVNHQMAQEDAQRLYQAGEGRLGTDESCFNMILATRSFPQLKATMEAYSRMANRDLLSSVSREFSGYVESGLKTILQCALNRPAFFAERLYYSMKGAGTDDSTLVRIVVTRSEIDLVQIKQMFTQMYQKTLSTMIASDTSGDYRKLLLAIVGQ
# UniProt Q3TYA6: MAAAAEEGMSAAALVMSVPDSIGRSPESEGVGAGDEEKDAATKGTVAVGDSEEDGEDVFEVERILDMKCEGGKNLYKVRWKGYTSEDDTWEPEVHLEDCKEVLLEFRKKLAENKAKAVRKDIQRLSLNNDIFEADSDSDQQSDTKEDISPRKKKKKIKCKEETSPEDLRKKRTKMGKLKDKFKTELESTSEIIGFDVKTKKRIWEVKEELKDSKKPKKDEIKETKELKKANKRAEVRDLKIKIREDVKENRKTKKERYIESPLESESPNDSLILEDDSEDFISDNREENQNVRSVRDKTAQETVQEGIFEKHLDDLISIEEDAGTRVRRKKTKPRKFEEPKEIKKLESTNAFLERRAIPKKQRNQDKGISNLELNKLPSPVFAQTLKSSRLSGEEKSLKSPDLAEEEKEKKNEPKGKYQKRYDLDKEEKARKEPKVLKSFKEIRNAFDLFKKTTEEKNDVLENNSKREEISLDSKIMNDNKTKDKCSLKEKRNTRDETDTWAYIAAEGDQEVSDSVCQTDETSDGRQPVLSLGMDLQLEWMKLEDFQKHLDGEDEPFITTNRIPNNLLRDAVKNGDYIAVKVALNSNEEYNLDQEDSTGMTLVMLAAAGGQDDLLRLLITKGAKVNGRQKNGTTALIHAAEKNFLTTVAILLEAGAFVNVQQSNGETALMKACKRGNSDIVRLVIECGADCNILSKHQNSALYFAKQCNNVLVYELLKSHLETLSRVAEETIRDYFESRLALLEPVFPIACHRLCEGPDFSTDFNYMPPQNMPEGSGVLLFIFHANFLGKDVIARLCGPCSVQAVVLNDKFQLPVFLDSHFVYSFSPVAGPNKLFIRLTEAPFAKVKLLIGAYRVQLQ
# UniProt Q32NY4: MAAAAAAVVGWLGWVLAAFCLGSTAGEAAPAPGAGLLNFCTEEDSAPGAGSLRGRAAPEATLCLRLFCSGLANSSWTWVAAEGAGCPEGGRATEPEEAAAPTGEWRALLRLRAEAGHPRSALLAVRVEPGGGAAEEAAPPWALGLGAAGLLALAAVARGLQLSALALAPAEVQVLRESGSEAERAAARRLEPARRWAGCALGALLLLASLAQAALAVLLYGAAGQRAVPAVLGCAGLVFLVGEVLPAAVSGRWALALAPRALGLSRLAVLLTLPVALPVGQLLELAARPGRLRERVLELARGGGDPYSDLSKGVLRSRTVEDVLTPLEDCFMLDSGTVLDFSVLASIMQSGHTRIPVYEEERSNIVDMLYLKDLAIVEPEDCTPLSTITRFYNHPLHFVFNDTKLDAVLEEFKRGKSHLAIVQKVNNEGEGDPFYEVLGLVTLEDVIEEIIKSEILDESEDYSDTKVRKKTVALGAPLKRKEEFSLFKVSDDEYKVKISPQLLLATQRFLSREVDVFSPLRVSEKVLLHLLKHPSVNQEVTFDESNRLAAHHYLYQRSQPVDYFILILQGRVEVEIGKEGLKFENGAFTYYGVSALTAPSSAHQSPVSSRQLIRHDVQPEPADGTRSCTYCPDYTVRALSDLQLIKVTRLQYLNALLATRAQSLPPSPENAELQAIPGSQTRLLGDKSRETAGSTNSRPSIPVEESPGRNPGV
# UniProt Q3TVA9: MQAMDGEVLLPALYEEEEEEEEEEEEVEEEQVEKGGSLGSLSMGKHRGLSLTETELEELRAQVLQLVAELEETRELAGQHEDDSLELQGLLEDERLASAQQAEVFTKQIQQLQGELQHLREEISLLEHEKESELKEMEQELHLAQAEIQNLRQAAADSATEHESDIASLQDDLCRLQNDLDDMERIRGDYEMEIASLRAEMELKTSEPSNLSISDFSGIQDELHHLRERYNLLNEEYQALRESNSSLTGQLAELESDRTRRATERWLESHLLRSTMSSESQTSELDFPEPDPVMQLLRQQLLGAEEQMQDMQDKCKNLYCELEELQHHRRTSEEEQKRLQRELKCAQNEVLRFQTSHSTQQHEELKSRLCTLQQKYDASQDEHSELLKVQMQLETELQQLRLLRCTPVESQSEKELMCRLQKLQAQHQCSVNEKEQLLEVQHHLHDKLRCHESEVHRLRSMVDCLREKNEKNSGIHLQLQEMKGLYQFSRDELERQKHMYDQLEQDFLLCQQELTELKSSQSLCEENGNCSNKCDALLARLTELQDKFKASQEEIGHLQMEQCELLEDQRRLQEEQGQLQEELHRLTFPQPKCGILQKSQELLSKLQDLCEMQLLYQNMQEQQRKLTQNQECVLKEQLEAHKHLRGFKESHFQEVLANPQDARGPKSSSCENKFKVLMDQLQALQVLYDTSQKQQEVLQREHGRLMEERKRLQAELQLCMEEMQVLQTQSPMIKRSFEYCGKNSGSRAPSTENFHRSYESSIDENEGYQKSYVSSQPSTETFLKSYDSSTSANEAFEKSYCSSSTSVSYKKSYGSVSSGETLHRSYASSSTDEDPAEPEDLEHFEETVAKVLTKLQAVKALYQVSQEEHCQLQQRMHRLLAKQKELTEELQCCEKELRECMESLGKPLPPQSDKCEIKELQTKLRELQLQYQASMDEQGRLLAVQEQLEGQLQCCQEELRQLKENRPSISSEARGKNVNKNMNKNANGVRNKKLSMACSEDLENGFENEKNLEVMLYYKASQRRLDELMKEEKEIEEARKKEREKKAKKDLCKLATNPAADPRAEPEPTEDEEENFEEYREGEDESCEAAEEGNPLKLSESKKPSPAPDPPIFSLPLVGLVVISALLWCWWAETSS
# UniProt Q3U133: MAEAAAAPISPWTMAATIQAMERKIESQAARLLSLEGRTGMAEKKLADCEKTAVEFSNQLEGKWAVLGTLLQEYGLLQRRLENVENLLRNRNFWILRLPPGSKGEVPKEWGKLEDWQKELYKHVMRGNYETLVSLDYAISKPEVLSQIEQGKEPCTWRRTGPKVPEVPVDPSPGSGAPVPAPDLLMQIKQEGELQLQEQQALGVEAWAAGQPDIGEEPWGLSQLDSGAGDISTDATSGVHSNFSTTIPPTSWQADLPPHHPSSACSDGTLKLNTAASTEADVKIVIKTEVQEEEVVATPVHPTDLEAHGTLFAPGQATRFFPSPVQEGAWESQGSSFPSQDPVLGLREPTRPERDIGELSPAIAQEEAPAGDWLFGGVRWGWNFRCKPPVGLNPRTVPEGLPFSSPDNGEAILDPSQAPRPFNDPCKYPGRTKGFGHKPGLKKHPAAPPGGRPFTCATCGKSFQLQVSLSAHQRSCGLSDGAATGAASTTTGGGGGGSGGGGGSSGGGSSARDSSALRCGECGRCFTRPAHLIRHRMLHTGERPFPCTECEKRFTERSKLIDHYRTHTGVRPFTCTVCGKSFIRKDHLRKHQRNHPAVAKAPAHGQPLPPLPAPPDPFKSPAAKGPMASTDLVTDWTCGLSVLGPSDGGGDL
# UniProt Q3TAA7: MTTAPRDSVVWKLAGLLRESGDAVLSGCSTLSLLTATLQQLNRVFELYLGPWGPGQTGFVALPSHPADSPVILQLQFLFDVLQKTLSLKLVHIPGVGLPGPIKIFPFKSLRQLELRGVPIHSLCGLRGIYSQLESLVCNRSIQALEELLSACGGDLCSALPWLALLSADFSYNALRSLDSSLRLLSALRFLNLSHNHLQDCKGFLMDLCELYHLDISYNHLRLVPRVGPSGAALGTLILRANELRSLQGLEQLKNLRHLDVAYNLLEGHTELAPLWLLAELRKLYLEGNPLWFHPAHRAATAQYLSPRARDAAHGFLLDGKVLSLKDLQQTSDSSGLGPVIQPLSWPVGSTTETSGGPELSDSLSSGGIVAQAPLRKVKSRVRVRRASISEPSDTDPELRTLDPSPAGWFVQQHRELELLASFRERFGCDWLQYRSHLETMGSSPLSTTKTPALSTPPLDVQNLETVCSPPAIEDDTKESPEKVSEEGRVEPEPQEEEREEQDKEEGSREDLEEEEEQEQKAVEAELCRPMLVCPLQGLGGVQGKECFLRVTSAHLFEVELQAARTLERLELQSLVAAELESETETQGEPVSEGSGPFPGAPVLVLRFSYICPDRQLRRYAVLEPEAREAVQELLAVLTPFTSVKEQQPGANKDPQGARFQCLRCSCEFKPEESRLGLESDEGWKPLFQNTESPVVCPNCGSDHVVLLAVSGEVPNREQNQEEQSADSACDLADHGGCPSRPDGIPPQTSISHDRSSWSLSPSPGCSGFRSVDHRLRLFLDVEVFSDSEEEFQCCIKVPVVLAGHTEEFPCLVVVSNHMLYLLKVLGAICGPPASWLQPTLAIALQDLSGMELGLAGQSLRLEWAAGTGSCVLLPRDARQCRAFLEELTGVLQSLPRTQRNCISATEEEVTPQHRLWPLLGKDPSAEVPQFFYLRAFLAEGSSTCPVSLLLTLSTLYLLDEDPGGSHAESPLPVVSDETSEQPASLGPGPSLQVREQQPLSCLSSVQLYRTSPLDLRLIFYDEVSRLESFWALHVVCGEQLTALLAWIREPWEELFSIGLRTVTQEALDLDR
# UniProt Q3TDQ1: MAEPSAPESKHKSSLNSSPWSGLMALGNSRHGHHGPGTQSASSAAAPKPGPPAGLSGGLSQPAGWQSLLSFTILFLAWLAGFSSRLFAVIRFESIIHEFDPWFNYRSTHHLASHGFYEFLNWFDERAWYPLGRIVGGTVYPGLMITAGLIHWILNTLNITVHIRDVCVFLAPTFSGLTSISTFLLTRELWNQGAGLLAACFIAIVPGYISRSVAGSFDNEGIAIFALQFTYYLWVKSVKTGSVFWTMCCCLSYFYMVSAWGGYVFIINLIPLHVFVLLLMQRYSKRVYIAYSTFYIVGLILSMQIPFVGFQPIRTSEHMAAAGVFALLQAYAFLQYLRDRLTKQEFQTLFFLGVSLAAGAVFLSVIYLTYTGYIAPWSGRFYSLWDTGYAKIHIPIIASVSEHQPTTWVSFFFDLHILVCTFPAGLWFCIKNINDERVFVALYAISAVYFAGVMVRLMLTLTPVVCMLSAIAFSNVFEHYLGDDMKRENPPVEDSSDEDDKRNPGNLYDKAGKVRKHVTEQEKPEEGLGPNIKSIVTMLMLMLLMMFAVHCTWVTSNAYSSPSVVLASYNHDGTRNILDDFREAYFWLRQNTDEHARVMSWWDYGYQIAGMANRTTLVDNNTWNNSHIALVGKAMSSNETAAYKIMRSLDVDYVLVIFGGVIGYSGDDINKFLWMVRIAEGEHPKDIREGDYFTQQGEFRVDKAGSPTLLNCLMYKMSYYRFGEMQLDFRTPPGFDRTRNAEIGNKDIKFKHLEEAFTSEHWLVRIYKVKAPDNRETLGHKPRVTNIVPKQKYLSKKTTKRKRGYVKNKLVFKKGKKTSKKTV
# UniProt Q14DQ1: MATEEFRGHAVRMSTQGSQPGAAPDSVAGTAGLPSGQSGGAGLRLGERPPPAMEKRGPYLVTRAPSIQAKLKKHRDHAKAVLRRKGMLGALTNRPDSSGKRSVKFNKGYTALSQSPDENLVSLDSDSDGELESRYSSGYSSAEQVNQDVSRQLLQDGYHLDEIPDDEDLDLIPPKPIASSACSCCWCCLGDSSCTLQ
# UniProt Q3TDK6, whole entry: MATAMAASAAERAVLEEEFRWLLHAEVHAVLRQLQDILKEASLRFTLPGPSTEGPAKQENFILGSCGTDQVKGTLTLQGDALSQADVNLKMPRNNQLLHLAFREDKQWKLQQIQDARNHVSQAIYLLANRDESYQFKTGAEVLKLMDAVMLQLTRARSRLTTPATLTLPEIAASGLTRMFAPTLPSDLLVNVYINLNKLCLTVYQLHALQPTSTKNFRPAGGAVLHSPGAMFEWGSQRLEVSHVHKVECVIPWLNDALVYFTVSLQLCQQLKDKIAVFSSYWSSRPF
# UniProt Q02614: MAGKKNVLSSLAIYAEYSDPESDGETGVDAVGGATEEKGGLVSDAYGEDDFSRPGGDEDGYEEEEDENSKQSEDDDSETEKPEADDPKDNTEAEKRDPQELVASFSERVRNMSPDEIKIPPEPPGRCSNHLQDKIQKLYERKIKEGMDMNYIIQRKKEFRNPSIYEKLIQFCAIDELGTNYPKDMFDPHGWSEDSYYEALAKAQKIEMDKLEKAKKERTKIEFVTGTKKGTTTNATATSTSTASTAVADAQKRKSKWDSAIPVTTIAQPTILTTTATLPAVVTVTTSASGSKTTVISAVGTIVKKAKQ
# The list shows a part of the results. Most values lie at the level of the controls, where differences are scatter.
# Compound: CN[C@@H]1C[C@H]2O[C@@](C)([C@@H]1OC)n1c3ccccc3c3c4c(c5c6ccccc6n2c5c31)C(=O)NC4 [staurosporine]
# Assay: log2 fold change of tryptic peptide abundance, ligand vs vehicle (limited proteolysis) (log2 ratio); higher = more trypsin-susceptible (destabilized)
# Details: ligand concentration: 20 uM; sample: mouse liver crude lysate; replicate design: treated separately
row,Target,log2 fold change
1,"UniProt Q3U0V1 (peptide sequence: MMLDDIVSR, peptide start residue: 207)",0.133
2,"UniProt Q07076 (peptide sequence: DLEKDIR, peptide start residue: 281)",-0.513
3,"UniProt Q3U1T9 (peptide sequence: GGALFNTAVTK, peptide start residue: 409)",0.32
4,"UniProt Q05A36 (peptide sequence: TPVRGEEPIFVVTGR, peptide start residue: 261)",-0.287
5,"UniProt Q3TYA6 (peptide sequence: HLDGEDEPFITTNR, peptide start residue: 549)",-0.807
6,"UniProt Q32NY4 (peptide sequence: IPVYEEER, peptide start residue: 355)",-0.984
7,"UniProt Q3U0K8 (peptide sequence: RPADPGPARPMK, peptide start residue: 5)",-0.0305
8,"UniProt Q3TVA9 (peptide sequence: EIEEARK, peptide start residue: 1034)",0.133
9,"UniProt Q3U133 (peptide sequence: GEVPKEWGK, peptide start residue: 104)",-0.511
10,"UniProt Q3TAA7 (peptide sequence: TLDPSPAGWFVQQHR, peptide start residue: 401)",0.0305
11,"UniProt Q3TDQ1 (peptide sequence: IAEGEHPK, peptide start residue: 678)",-0.156
12,"UniProt Q14DQ1 (peptide sequence: LGERPPPAMEKR, peptide start residue: 45)",-0.132
13,"UniProt Q3TDK6 (peptide sequence: NFRPAGGAVLHSPGAMFEWGSQR, peptide start residue: 216)",0.272
14,"UniProt Q02614 (peptide sequence: IEMDKLEK, peptide start residue: 206)",-0.304
